In patent US6297019:
Where cells or extracts were used, other partners may take part. No signal at the amounts used counts as a negative.

Chains of the proteins cited; added tags and fusions are not shown. Chains listed by the source or under a name are the forms on record and can include a tag or linker.
CPF (endogenous CYP7 promoter-binding factor in HepG2 nuclear extract) (Homo sapiens), one chain, as listed by the source: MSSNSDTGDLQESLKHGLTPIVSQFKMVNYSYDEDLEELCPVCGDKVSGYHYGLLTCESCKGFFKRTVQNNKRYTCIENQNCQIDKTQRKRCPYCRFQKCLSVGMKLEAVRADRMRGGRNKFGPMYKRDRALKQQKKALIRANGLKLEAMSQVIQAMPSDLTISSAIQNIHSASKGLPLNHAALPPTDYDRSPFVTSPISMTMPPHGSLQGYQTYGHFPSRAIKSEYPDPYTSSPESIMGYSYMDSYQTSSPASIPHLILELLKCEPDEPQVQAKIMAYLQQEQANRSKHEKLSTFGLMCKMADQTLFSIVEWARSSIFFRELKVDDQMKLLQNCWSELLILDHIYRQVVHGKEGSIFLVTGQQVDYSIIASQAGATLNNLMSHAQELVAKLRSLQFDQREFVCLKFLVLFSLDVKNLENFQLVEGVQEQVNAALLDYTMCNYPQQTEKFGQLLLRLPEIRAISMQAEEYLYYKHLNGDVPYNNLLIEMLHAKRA

The sequences below were run on CPF (endogenous CYP7 promoter-binding factor in HepG2 nuclear extract) (Homo sapiens) (assay: EMSA). Conditions: 5 mM MgCl2, 100 mM KCl, room temperature, protein in an extract, label: 32P.
“TCTGATACCTGTGGACTTAGTTCAAGGCCAGTTA (double strand) [CYP7 promoter wild-type oligo]”: binds.

Same assay, conditions: protein in an extract, variant of CYP7 promoter wild-type oligo
“TCTGATACCTGTGGACTTAGTAAGAGGCCAGTTA (double strand) [SEQ 28 oligo]”: no binding.
“TCTGATACCTGTGGACTTAGTACCAGGCCAGTTA (double strand) [SEQ 26 oligo]”: no binding.
“TCTGATACCTGTGGACTTAGTAGAAGGCCAGTTA (double strand) [SEQ 17 oligo]”: no binding.
“TCTGATACCTGTGGACTTAGTAGGAGGCCAGTTA (double strand) [SEQ 27 oligo]”: no binding.
“TCTGATACCTGTGGACTTAGTCAAAGGCCAGTTA (double strand) [SEQ 25 oligo]”: no binding.
“TCTGATACCTGTGGACTTAGTCTCAGGCCAGTTA (double strand) [SEQ 30 oligo]”: no binding.
“TCTGATACCTGTGGACTTAGTTCAAGGAGAGTTA (double strand) [SEQ 21 oligo]”: no binding.
“TCTGATACCTGTGGACTTAGTTCAAGGCCAATTA (double strand) [SEQ 23 oligo]”: binds.
“TCTGATACCTGTGGACTTAGTTCAAGGCCAGGTA (double strand) [SEQ 24 oligo]”: binds.
“TCTGATACCTGTGGACTTAGTTCAAGGCCTATTA (double strand) [SEQ 22 oligo]”: no binding.
“TCTGATACCTGTGGACTTAGTTCAAGTCCAGTTA (double strand) [SEQ 20 oligo]”: no binding.
“TCTGATACCTGTGGACTTAGTTCAATGCCAGTTA (double strand) [SEQ 19 oligo]”: no binding.
“TCTGATACCTGTGGACTTAGTTCTTGGCCAGTTA (double strand) [SEQ 18 oligo]”: no binding.
“TCTGATACCTGTGGACTTAGTTTCAGGCCAGTTA (double strand) [SEQ 29 oligo]”: no binding.
“TCTGATACCTGTTATATTAGTTCAAGGCCAGTTA (double strand) [SEQ 13 oligo]”: binds.
“TCTGATACCTGTTATATTCTATCAAGGCCAGTTA (double strand) [SEQ 15 oligo]”: binds.
“TCTGGAGGATGTGGACTTAGTTCAAGGCCAGTTA (double strand) [SEQ 12 oligo]”: binds.
“TCTGGAGGATGTGGACTTCTATCAAGGCCAGTTA (double strand) [SEQ 14 oligo]”: binds.
